# Source: PubChem BioAssay AID330 (DTP/NCI, 2004)
# The list shows only some results of the screen, not a fair sample: it is rich in T/C values a quarter to a half above the control, in often repeated tests (any T/C) and in doses without a T/C. Other doses and runs of a compound stand elsewhere. T/C: endpoint of the treated group in % of that of the vehicle group. Some entries give survivors of the animals treated and no T/C: the source holds a T/C of zero for them, seemingly a mark for toxic or unscored doses. Some survivor counts are full or nearly so, which does not show that the dose was tolerated: survival well below the control is almost never listed, so the zero probably covers shortened survival too. Survivors were counted at the toxicity check, usually on the fifth day, unless a day is given; later deaths do not show. Schedule codes are those of the source, taken here to give the interval after Q, in days (D) or hours (H), and the number of doses after X. Some structures stand for samples that the source files as different forms (salt, stereo form or complex); doses refer to the form tested. Where survival is the endpoint, the PubChem record calls one and a half times the control and up active, and a quarter to a half above the control has no call in these data; cut-offs in other NCI protocols can differ. Some entries hold several experiments; the results are listed from low to high.
# System: P388 leukemia ip, CD2F1 mice, survival T/C
# Experiment: NCI In Vivo Anticancer Drug Screen. Data for tumor model P388 Leukemia (intraperitoneal) in CD2F1 (CDF1) mice
# Conditions: T/C endpoint: median survival time, higher T/C = longer survival
# [1] = dose: 240.0 mg/kg/injection, schedule: Q01DX005 (ip), vehicle: suspension in saline
# [2] = dose: 100.0 mg/kg/injection, schedule: Q01DX005 (ip), vehicle: saline with Tween-80
# [3] = dose: 200.0 mg/kg/injection, schedule: Q01DX005 (ip), vehicle: saline with Tween-80
# [4] = dose: 200.0 mg/kg/injection, schedule: Q01DX009 (ip), vehicle: saline with Tween-80
# [5] = dose: 400.0 mg/kg/injection, schedule: Q01DX009 (ip), vehicle: saline with Tween-80
# [6] = dose: 200.0 mg/kg/injection, schedule: Q01DX009 (ip), vehicle: saline
structure (smiles),measurement,setting,value
Nc1nc(Br)nc2c1ncn2C1CC(O)C(CO)O1 (configuration not stated),T/C,"dose: 3.75 mg/kg/injection, schedule: Q03HX009 (ip), vehicle: saline",134 % of control
same,T/C,"dose: 6.0 mg/kg/injection, schedule: Q01DX005 (ip), vehicle: suspension in saline",127 % of control
same,T/C,"dose: 7.5 mg/kg/injection, schedule: Q03HX009 (ip), vehicle: saline with Tween-80",141 % of control
same,T/C,"dose: 7.5 mg/kg/injection, schedule: Q03HX009 (ip), vehicle: saline",136 and 149 % of control
same,T/C,"dose: 12.0 mg/kg/injection, schedule: Q01DX005 (ip), vehicle: suspension in saline",127 % of control
same,T/C,"dose: 15.0 mg/kg/injection, schedule: Q01DX005 (ip), vehicle: saline + alcohol",133 % of control
same,T/C,"dose: 15.0 mg/kg/injection, schedule: Q03HX009 (ip), vehicle: saline with Tween-80",141 % of control
same,T/C,"dose: 24.0 mg/kg/injection, schedule: Q01DX005 (ip), vehicle: suspension in saline",128 % of control
same,T/C,"dose: 30.0 mg/kg/injection, schedule: Q01DX005 (ip), vehicle: saline + alcohol",135 % of control
same,T/C,"dose: 30.0 mg/kg/injection, schedule: Q01DX005 (ip), vehicle: suspension in saline",125 % of control
same,T/C,"dose: 60.0 mg/kg/injection, schedule: Q01DX005 (ip), vehicle: saline + alcohol",135 % of control
same,T/C,"dose: 120.0 mg/kg/injection, schedule: Q01DX005 (ip), vehicle: saline + alcohol",134 % of control
same,survivor count,"dose: 120.0 mg/kg/injection, schedule: Q03HX009 (ip), vehicle: saline",1 of 6
same,survivor count,"dose: 240.0 mg/kg/injection, schedule: Q01DX005 (ip), vehicle: saline + alcohol",0 of 6
same,survivor count,[1],2 of 6
same,survivor count,"dose: 240.0 mg/kg/injection, schedule: Q03HX009 (ip), vehicle: saline",0 of 6
O=C1c2ccccc2-c2c1c1ccccc1c(=O)n2Cc1ccco1,survivor count,"dose: 6.25 mg/kg/injection, schedule: Q01DX005 (ip), vehicle: saline with Tween-80",5 of 5
same,survivor count,"dose: 12.5 mg/kg/injection, schedule: Q01DX005 (ip), vehicle: saline with Tween-80",5 of 5
same,survivor count,"dose: 25.0 mg/kg/injection, schedule: Q01DX005 (ip), vehicle: saline with Tween-80",5 of 5
same,survivor count,"dose: 50.0 mg/kg/injection, schedule: Q01DX005 (ip), vehicle: saline with Tween-80",5 of 5
same,survivor count,[2],5 of 5
same,survivor count,[3],5 of 5
CC(=O)OCC#CCN1CCOCC1,T/C,"dose: 100.0 mg/kg/injection, schedule: Q01DX005 (ip), vehicle: saline",141 % of control
same,T/C,"dose: 200.0 mg/kg/injection, schedule: Q01DX005 (ip), vehicle: saline",141 % of control
same,survivor count,[1],2 of 6
OC1(c2ccccc2)CCCCCC1,survivor count,[4],2 of 6
same,survivor count,[5],0 of 6
CC1NCCc2c1[nH]c1ccccc21 (configuration not stated),survivor count,"dose: 100.0 mg/kg/injection, schedule: Q01DX005 (ip), vehicle: Klucel (hydroxypropylcellulose) (HPC)",2 of 6
same,survivor count,"dose: 200.0 mg/kg/injection, schedule: Q01DX005 (ip), vehicle: Klucel (hydroxypropylcellulose) (HPC)",0 of 6
CCc1c(-c2ccc(Cl)cc2)nc(N)nc1-c1nc(N)nc(-c2ccc(Cl)cc2)c1CC,survivor count,"dose: 240.0 mg/kg/injection, schedule: Q01DX005 (ip), vehicle: saline",3 of 6
CC(C)OC(=O)C1(N)CCCC1,survivor count,"dose: 100.0 mg/kg/injection, schedule: Q01DX009 (ip), vehicle: saline with Tween-80",3 of 6
same,survivor count,[4],6 of 6
same,survivor count,[6],5 of 6
same,survivor count,[5],5 of 6
same,T/C,"dose: 400.0 mg/kg/injection, schedule: Q04DX003 (ip), vehicle: saline",127 % of control
N#C/C(=N\NC(=O)c1ccccc1)c1ccccc1,survivor count,[2],6 of 6
same,survivor count,[3],6 of 6
COc1ccc(OCC2CN(C)CCC2c2ccccc2)cc1 (configuration not stated),survivor count,"dose: 100.0 mg/kg/injection, schedule: Q01DX009 (ip), vehicle: saline",6 of 6
same,survivor count,[6],0 of 6
COc1cc(C2N3CCCN2CC3)cc(OC)c1OC (configuration not stated),survivor count,"dose: 400.0 mg/kg/injection, schedule: Q01DX009 (ip), vehicle: saline",3 of 6
CCC(C)C(N)C(=O)NC(CC(N)=O)C(=O)NC(CC(C)C)C(=O)NC(CCCCN)C(=O)NC(C)C(=O)NC(CC(C)C)C(=O)NC(C)C(=O)NC(C)C(=O)NC(CC(C)C)C(=O)NC(C)C(=O)NC(CCCCN)C(=O)NC(CCCCN)C(=O)NC(C(=O)NC(CC(C)C)C(N)=O)C(C)CC (configuration not stated),survivor count,"dose: 25.0 mg/kg/injection, schedule: Q01DX005 (ip), vehicle: Klucel (hydroxypropylcellulose) (HPC)",1 of 6
same,survivor count,"dose: 50.0 mg/kg/injection, schedule: Q01DX005 (ip), vehicle: Klucel (hydroxypropylcellulose) (HPC)",0 of 6
